Results on one compound are retold here after patent US20250041574A1 (TARIS Biomedical LLC, priority 2022, published 2025).

Molecules are shown by their SMILES.

For data set [1] the following is noted: rats dosed orally 20 mg/kg, 2 and 7 hours.
The test system of data set [2] is ERK1/2 phosphorylation in orthotopic bladder UM-UC-1 tumors. Nature of the data set: ERK1/2 phosphorylation in orthotopic UM-UC-1 tumors (capillary immunoblotting). It counts as in vivo, nude rats. The settings on record: IVES 6 mg/kg. (Immunoblotting shows a protein as a band on a membrane.)
The conditions of data set [3]: bladder.

Take `COc1cc(OC)cc(N(CCNC(C)C)c2ccc3ncc(-c4cnn(C)c4)nc3c2)c1` [erdafitinib, N-(3,5-dimethoxyphenyl)-N′-(1-methylethyl)-N-[3-(1-methyl-1H-pyrazol-4-yl)quinoxalin-6-yl]ethane-1,2-diamine]: in data set [1], the “fold lower exposure in s.c. tumors compared with orthotopic tumors” value is listed as “Roughly 2 fold”. Also, the results for the “pERK/ERK (relative to vehicle group)” value in data set [2] (7 hours post dose) and in data set [2] (48 hours post dose) were 0.60 and 0.71, respectively. Moreover, the “pERK/ERK (relative to 48-hour vehicle group)” value in data set [2] (120 hours post dose) is 0.98. Besides, the “fold concentration in urothelial layer compared to underlying tissue layers” value in data set [3] is given as greater than 10 fold.
